Experimental data taken from PubChem BioAssay AID540276 (National Center for Advancing Translational Sciences (NCATS), 2011).
About 5,400 (1.8%) of roughly 300,000 compounds were called active. Inconclusive means that the source gave no clear call. Such entries were picked first, then a sample of the others. The call rests on the fitted dose curve; tested in HEK293 cells. Potencies of inconclusive entries are doubtful fits and often do not repeat.

Test: qHTS for inhibitors of binding or entry into cells for Marburg Virus
Conditions: Marburg virus pseudotyped entry inhibition, cell reporter; activity change, negative = inhibition: at 37.8 µM (top of the series) unless noted
On the % scale 0 is the no-effect control and ±100 the full control effect; potency means the concentration at half of the fitted maximal effect.

| SMILES | Potency | activity change, negative = inhibition |
| --- | --- | --- |
| CCN1C(=O)/C(=C\c2nc3ccccc3c(=O)n2-c2ccccc2)c2ccccc21 | inconclusive: 3.98 µM [inhibitor, full curve, poor fit] | – |
| OCCC1CN(CC(c2ccccc2)c2ccccc2)CCN1C1CCCC1 (stereo not drawn) | active: 13 µM | – |
| C#CCSc1nnnn1-c1cccc(Cl)c1 | active: 3.16 µM | – |
| COc1cccc(CCNC(=O)C2CCCN(c3ncnc4c3nc3n4CCCCC3)C2)c1OC (stereo not drawn) | inconclusive: 6.31 µM [activator, single point] | – |
| O=C(NC1CC(=O)N(c2cccc(F)c2)C1)C(=O)c1c[nH]c2ccccc12 (stereo not drawn) | inconclusive: 20 µM [activator, single point] | – |
| Nc1ccc2ccccc2c1 | inconclusive: 14.1 µM [activator, single point] | – |
| CCOC(=O)Cc1csc(SCC(=O)NC2CCCCC2)n1 | – | inactive: -17.4% |
| Cc1ccc(S(=O)(=O)Nc2ccc(O)c3cccnc23)cc1 | inconclusive: 35.5 µM [inhibitor, single point] | – |
| O=C(CN1CCN(S(=O)(=O)c2ccc(Cl)cc2)CC1)N1CCCC1 | inconclusive: 35.5 µM [activator, single point] | – |
| CCCCOc1ccc(-c2nnc(-c3ccncc3)o2)cc1 | inconclusive: 4.61 µM [activator, full curve, poor fit] | – |
| COCCNC(=O)c1cccc(OC2CCN(Cc3ccc(F)c(OC)c3)CC2)c1 | inconclusive: 10 µM [inhibitor, partial curve, poor fit] | – |
| COc1cc2c(=O)n(Cc3ccco3)c(=O)n(CC(=O)c3cccc(Br)c3)c2cc1OC | inconclusive: 2.51 µM [inhibitor, partial curve, poor fit] | – |
| CC(C)(C)c1ccc(C(=O)NC(=S)Nc2ccc(N3CCOCC3)cc2)cc1 | active: 0.794 µM | – |
| Nc1nn(-c2ccccc2)nc1C(=O)OCc1c(F)cccc1Cl | – | inactive: 2.78% [at 46.1 µM] |
| Cc1ccc(N(Cc2cccs2)C(=O)c2ccco2)cc1 | – | inactive: 0.843% [at 46.1 µM] |
| O=c1[nH]c2cc3c(cc2cc1C(c1nnnn1C1CCCC1)N1CCSCC1)OCCO3 (stereo not drawn) | inconclusive: 25.1 µM [inhibitor, single point] | – |
| Cc1ccc(C)c(OCCC(=O)Nc2cc(S(=O)(=O)N3CCCCC3)ccc2C)c1 | – | inactive: 0.278% [at 46.1 µM] |
| COc1cccc(/C(N)=N/OC(=O)Cc2ccccc2[N+](=O)[O-])c1 | inconclusive: 4.47 µM [activator, full curve, poor fit] | – |
| CC(=O)Oc1ccc2c(c1)OC(c1ccccc1)CC21CC(C)(C)NC(=O)N1 (stereo not drawn) | inconclusive: 12.6 µM [inhibitor, single point] | – |
| Cc1ccc(C(=O)c2cn(Cc3ccccc3)c3nc(C)ccc3c2=O)cc1 | inconclusive: 35.5 µM [inhibitor, single point] | – |
| Cc1ccc2nc(-c3ccccc3)cc(C(=O)N3CC(C)OC(C)C3)c2c1 (stereo not drawn) | – | inactive: -23.3% |
| CC(C)CNC(=O)c1cc(-c2ccc(Br)cc2)on1 | inconclusive: 1.46 µM [activator, partial curve, poor fit] | – |

| SMILES | Potency | activity change, negative = inhibition |
| --- | --- | --- |
| Cc1ccc(-c2c(C)c(-c3ccc(F)cc3)nc(N)c2C#N)o1 | inconclusive: 10 µM [activator, partial curve, poor fit] | – |
| Cc1ccc(-c2noc(CSc3nnc(-c4ccncc4)n3-c3ccc(C)cc3)n2)cc1 | inconclusive: 20.6 µM [inhibitor, partial curve, poor fit] | – |
| Cc1ccc(Cl)cc1N1CCN(S(=O)(=O)c2c(C)nc3scc(C)n3c2=O)CC1 | inconclusive: 15.8 µM [inhibitor, single point] | – |
| CC1CCN(C(=O)COC(=O)CNC(=O)c2ccccc2F)CC1 | inconclusive: 35.5 µM [activator, single point] | – |
| CCCCCCn1c([C@H](C)O)nc2ccccc21 | – | inactive: -12.5% |
| c1ccn2c(Cc3nnc4ccccn34)nnc2c1 | inconclusive: 9.2 µM [activator, partial curve] | – |
| CCOc1cc(CNCCO)cc(Br)c1OCc1ccccc1 | inconclusive: 10 µM [inhibitor, single point] | – |
| O=C(Nc1cccc(Cl)c1)OCCOCCOC(=O)Nc1cccc(Cl)c1 | inconclusive: 5.62 µM [inhibitor, partial curve] | – |
| O=C1/C(=C/c2cccs2)SC(=S)N1CCC(=O)N1CCCCC1CCO (stereo not drawn) | inconclusive: 0.562 µM [activator, full curve, poor fit] | – |
| CCOC(=O)Cc1cc(C)[nH]c1C(=O)OCC | inconclusive: 35.5 µM [inhibitor, single point] | – |
| COc1ccccc1NS(=O)(=O)c1cc(NC(=O)c2ccc3c(c2)OCCO3)ccc1C | inconclusive: 31.6 µM [inhibitor, single point] | – |
| N#CC1(NC(=O)COC(=O)c2ccccc2[N+](=O)[O-])CCCCC1 | inconclusive: 1.26 µM [inhibitor, single point] | – |
| COc1ccc(C2=NOC(C(=O)NCCCn3ccnc3)C2)cc1 (stereo not drawn) | inconclusive: 23.1 µM [activator, single point] | – |
| C[C@H](NC(=O)N1CCn2c1nc1ccccc12)C(=O)NCC1CCCO1 (stereo partly drawn) | inconclusive: 15.8 µM [activator, single point] | – |
| CC1(C)Cc2c(cnn2-c2cccc(F)c2)C(NC(=O)c2ccc[n+]([O-])c2)C1 (stereo not drawn) | – | inactive: -5.72% |
| CCc1cccc(C)c1NC(=O)C1CCCN1S(=O)(=O)c1cccc2nsnc12 (stereo not drawn) | – | inactive: 8.07% [at 46.1 µM] |
| CN1CCN(S(=O)(=O)c2cccc(C(=O)Nc3sc4c(c3-c3nc5ccccc5[nH]3)CCCC4)c2)CC1 | active: 16.4 µM | – |
| Cc1ccc(C(C(=O)NC2CCCC2)N(Cc2ccc3c(c2)OCO3)C(=O)c2snc(C(N)=O)c2N)cc1 (stereo not drawn) | inconclusive: 35.5 µM [inhibitor, single point] | – |
| CCN(CC)C1=NC=CC(c2ccccc2)=CC1C (stereo not drawn) | inconclusive: 1.78 µM [activator, partial curve, poor fit] | – |
| Cc1cccc(N(CC(=O)NCCSCc2ccccc2)S(=O)(=O)c2ccccc2)c1C | inconclusive: 12.6 µM [inhibitor, single point] | – |
| CCOc1ccccc1C(=O)N[C@H](C(=O)OCc1cc(=O)oc2cc(C)ccc12)C(C)C | inconclusive: 10 µM [inhibitor, single point] | – |

2 of the compounds above, as tab-separated lines:
SMILES	Potency	activity change, negative = inhibition
c1ccn2c(Cc3nnc4ccccn34)nnc2c1	inconclusive: 9.2 µM [activator, partial curve]	–
CCOc1cc(CNCCO)cc(Br)c1OCc1ccccc1	inconclusive: 10 µM [inhibitor, single point]	–
